The record followed here is patent US5317014A (priority 1991, dated 1994).

The data set can be described thus: general procedure: solution-phase peptide synthesis; DCC/HOBT.

As for “Cyclo(Abo--Asp)--trp(CO(CH2)6 NH2, HCl)--Phe--N(CH3)CH2 C6 H5”, where the note is “late stage modification step, hydrochloride”, the step yield was found to be 52%.

For the setting “coupling step”, “Cyclo(Abo--Asp)--trp(CHO)--Phe--N(CH3)CH2 C6 H5” yielded a step yield of 64%.
